Experimental data as given in the supplement of paper PMC11098740.
Some of the results follow. Many values rest on one well or one pass, so single values are uncertain.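 Pooled together, 41 HAP1 clones carry intronic fluorescent tags on 61 cancer-associated proteins, and each clone is recognized by its imaging pattern. Measurements are benchmarked against DMSO-treated control wells. dBET6, a BRD4 degrader, served as the positive control.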

The chains behind the UniProt entries cited, without tags or fusion partners.
UniProt O14980, whole entry: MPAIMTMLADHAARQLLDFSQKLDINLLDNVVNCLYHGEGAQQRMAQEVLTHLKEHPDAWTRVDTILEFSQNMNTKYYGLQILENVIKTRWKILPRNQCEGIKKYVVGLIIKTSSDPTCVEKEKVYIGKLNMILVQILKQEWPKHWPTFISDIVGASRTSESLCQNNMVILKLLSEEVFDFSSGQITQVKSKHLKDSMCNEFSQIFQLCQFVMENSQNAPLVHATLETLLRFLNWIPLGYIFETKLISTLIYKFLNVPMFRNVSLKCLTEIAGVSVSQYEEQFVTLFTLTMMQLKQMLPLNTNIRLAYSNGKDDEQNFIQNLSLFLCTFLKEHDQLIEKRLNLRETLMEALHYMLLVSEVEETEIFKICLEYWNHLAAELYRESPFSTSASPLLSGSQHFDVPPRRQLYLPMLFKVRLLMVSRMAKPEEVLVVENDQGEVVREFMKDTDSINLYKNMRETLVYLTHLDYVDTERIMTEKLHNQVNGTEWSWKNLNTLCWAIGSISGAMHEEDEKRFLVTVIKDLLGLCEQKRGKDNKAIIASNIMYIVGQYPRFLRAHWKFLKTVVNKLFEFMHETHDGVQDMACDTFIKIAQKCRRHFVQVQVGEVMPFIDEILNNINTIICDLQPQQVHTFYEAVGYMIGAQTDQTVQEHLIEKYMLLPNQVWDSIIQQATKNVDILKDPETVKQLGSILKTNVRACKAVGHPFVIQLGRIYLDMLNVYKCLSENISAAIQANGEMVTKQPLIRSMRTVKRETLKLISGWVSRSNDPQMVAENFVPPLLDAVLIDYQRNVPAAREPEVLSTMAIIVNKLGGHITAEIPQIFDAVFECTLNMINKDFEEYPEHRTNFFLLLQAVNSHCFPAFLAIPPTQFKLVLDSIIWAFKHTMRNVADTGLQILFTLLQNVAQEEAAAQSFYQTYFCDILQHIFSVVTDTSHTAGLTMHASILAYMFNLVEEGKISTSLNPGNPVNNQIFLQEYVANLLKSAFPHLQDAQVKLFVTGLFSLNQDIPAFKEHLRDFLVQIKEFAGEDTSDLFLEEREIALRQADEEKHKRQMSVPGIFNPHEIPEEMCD

Each compound was assayed against XPO1 (intron 15 mScarlet tag, HAP1) (UniProt O14980) (assay: XPO1 fluorescence intensity change vs DMSO (log2 fold change); higher = more XPO1 protein). Settings: 6 h.
In the case of CCN(CC)C(=S)S [Sodium Diethyldithiocarbamate Trihydrate] (10 µM), the “XPO1 fluorescence intensity change (log2)” value is reported as 0.0296. In the case of Clc1ccc2c(c1)C(N1CCNCC1)=Nc1ccccc1O2 [Amoxapine] (10.00000745 µM), the “XPO1 fluorescence intensity change (log2)” value is reported as 0.242. In the case of CC1(C)CNc2cc(NC(=O)c3cccnc3NCc3ccncc3)ccc21 [Motesanib] (10 µM), the “XPO1 fluorescence intensity change (log2)” value is reported as -0.0499. In the case of COc1cc(N)c(Cl)cc1C(=O)NC1CCNCC1OC (stereo unspecified) [Norcisapride] (7.74983 µM), the “XPO1 fluorescence intensity change (log2)” value is reported as -0.114. With O=C1OCCN1/N=C/c1ccc([N+](=O)[O-])o1 [Furazolidone] (10 µM) the “XPO1 fluorescence intensity change (log2)” value was 0.104. CN[C@@H]1C[C@H]2O[C@@](C)([C@@H]1OC)n1c3ccccc3c3c4c(c5c6ccccc6n2c5c31)C(=O)N[C@H]4O [UCN-01 (7-hydroxystaurosporine)] (10 µM) was tested, and the “XPO1 fluorescence intensity change (log2)” value was -0.116. In the case of Cc1ccc(Cl)c(Nc2ccccc2C(=O)O)c1Cl [Meclofenamate (sodium)] (10 µM), the “XPO1 fluorescence intensity change (log2)” value is reported as 0.0428. With CNC1(C)C2CCC(C2)C1(C)C (stereo unspecified) [Mecamylamine] (12.2 µM) the “XPO1 fluorescence intensity change (log2)” value was 0.062. CNC(=C[N+](=O)[O-])NCCSCc1csc(CN(C)C)n1 [Nizatidine] (10 µM) was tested, and the “XPO1 fluorescence intensity change (log2)” value was -0.172. With CC(C)(C#N)c1cc(Cn2cncn2)cc(C(C)(C)C#N)c1 [Anastrozole] (20 µM) the “XPO1 fluorescence intensity change (log2)” value was -0.306. In the case of Nc1nc2c(ncn2COC(CO)CO)c(=O)[nH]1 [Ganciclovir] (10 µM), the “XPO1 fluorescence intensity change (log2)” value is reported as -0.0639.
